From PubChem BioAssay AID1347076 (National Center for Advancing Translational Sciences (NCATS), 2019)
Screen size: about 400,000 compounds; about 13,000 (3.2%) were called active. This list was built around the results that the source calls inconclusive (neither active nor inactive); the mix of calls is not that of the screen. Calls follow the shape of the dose curve; as a rule, active = well fitted cell-killing curve with a large enough effect; inconclusive = small, poorly fitted or top-dose-only effect, or effect the other way; inactive = flat fitted curve, though single readings scatter. Where the call is inconclusive, the potency comes from a doubtful curve fit.

Test: qHTS assay for MDR1-selective chemotherapeutics: Primary screen using the drug-selected MDR subline cells KB-V1; also: nearly all actives have a fitted effect of over 60% in size
Details: KB-V1 MDR cells viability, CellTiter-Glo, 72 h; activity change, negative = cytotoxicity: at 46.1 µM (top of the series)
How it was run: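 Readout: CellTiter-Glo luminescence, 10 min after addition. Cells: KB-V1 MDR subline, 72 h at 37 degrees C with compound. Analysis: corrected, normalized data fitted to concentration-effect curves.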
% is scaled to controls: 0 for no effect and ±100 for the full control effect; potency is read from the fitted curve at half-maximal effect.

Row | SMILES | Potency | activity change, negative = cytotoxicity
1 | CCC(CC)C(=O)Nc1nnc(-c2cccs2)s1 | inconclusive: 16.4 µM [cytotoxic, single point] | –
2 | CCOc1ccccc1NC(=O)/C=C/c1ccc(S(=O)(=O)N2CCOCC2)cc1 | inconclusive: 29.1 µM [cytotoxic, single point] | –
3 | COc1ccc(C(=O)C(C)[n+]2ccc(C)c3ccccc32)cc1[N+](=O)[O-] (stereo not given) | inconclusive: 29.1 µM [rising, partial curve, poor fit] | –
4 | CCOC(=O)N1CCN(C(=O)/C=C/c2cccc([N+](=O)[O-])c2)CC1 | – | inactive: -14.8%
5 | CC(=O)Nc1ccc(S(=O)(=O)Nc2nc3ccccc3nc2Nc2cccc(O)c2)cc1 | – | inactive: 2.18%
6 | COc1ccc(/C=N/NC(=O)c2ccccc2NC(=O)c2ccco2)c(OC)c1 | inconclusive: 16.4 µM [cytotoxic, partial curve, poor fit] | –
7 | CCCCn1c(N)c(C(=S)NC(=O)CC(C)(C)C)c(=O)n(C)c1=O | inconclusive: 29.1 µM [cytotoxic, single point] | –
8 | COC(CC(=O)NNC(=S)Nc1ccc(Cl)cc1)OC | – | inactive: 1.09%
9 | O=C(O)CCn1c(SCc2cccc3ccccc23)nc2ccccc21 | inconclusive: 29.1 µM [cytotoxic, partial curve, poor fit] | –
10 | c1ccc(N=Nc2ccc(C3=NCCO3)cc2)cc1 | – | inactive: -10.5%
11 | c1csc(-c2nnc(COc3ncnc4sccc34)o2)c1 | inconclusive: 20.6 µM [cytotoxic, single point] | –
12 | CCOc1ccc(-n2c(-c3ccccc3)c[nH]c2=S)cc1 | – | inactive: -7.07%
13 | COc1ccc(-c2cc3ncc(-c4ccccc4)c(N)n3n2)cc1 | inconclusive: 25.9 µM [cytotoxic, single point] | –
14 | O=C1[C@@H](Oc2ccccc2)[C@@H](c2ccccc2)N1c1cccnc1 | – | inactive: 0.0002%
15 | Cc1ccc(/C=C/C(=O)N2CCc3ccccc3C2)cc1 | – | inactive: -2.95%
16 | O=C(COc1ccc(Cl)cc1[N+](=O)[O-])N/N=C/c1cccs1 | – | inactive: 15%
17 | Cc1ccc(S(=O)(=O)N(C)C)cc1NC(=S)NC(C)CCCC(C)C (stereo not given) | inconclusive: 10.3 µM [cytotoxic, partial curve] | –
18 | CCc1ccc(-c2cc(C(=O)N3N=C(C(F)F)CC3(O)C(F)F)c3ccccc3n2)cc1 (stereo not given) | active: 18.4 µM | –
19 | COc1ccc(NC(=O)/C=C/c2ccccc2)cn1 | – | inactive: -5.16%
20 | CCN(CC(=O)Nc1ccc2c(c1)OCCO2)CC(=O)Nc1ccccc1C(F)(F)F | active: 11.6 µM | –
21 | N#Cc1cc(NCC2CCCO2)c([N+](=O)[O-])cc1C#N (stereo not given) | inconclusive: 16.4 µM [cytotoxic, single point] | –
22 | COc1ccc(/C=N/NC(=O)CCn2nc(C)cc2C)cc1O | – | inactive: 14%
23 | COc1ccc(C(=O)N2CCN(c3cccc(Cl)c3)CC2)cc1 | active: 20.6 µM | –
24 | Cc1ccc(-c2nc3cccnc3o2)cc1NC(=O)COc1ccc(C(C)(C)C)cc1 | inconclusive: 18.4 µM [cytotoxic, single point] | –
25 | COc1ccccc1C(c1nnnn1Cc1ccco1)N1CCN(c2cccc(C)c2C)CC1 (stereo not given) | inconclusive: 8.2 µM [cytotoxic, partial curve] | –

From compound 3 as far as 7, as listed above:
Row | SMILES | Potency | activity change, negative = cytotoxicity
3 | COc1ccc(C(=O)C(C)[n+]2ccc(C)c3ccccc32)cc1[N+](=O)[O-] (stereo not given) | inconclusive: 29.1 µM [rising, partial curve, poor fit] | –
4 | CCOC(=O)N1CCN(C(=O)/C=C/c2cccc([N+](=O)[O-])c2)CC1 | – | inactive: -14.8%
5 | CC(=O)Nc1ccc(S(=O)(=O)Nc2nc3ccccc3nc2Nc2cccc(O)c2)cc1 | – | inactive: 2.18%
6 | COc1ccc(/C=N/NC(=O)c2ccccc2NC(=O)c2ccco2)c(OC)c1 | inconclusive: 16.4 µM [cytotoxic, partial curve, poor fit] | –
7 | CCCCn1c(N)c(C(=S)NC(=O)CC(C)(C)C)c(=O)n(C)c1=O | inconclusive: 29.1 µM [cytotoxic, single point] | –

(further entries)

Row | SMILES | Potency | activity change, negative = cytotoxicity
26 | N#C/C(=C\c1ccc(Sc2ccccc2)o1)c1nc2ccccc2[nH]1 | – | inactive: 0.674%
27 | CCc1cccc(NC(=S)N(CCN(C)C)C(C)c2ccncc2)c1 (stereo not given) | inconclusive: 16.4 µM [cytotoxic, partial curve, poor fit] | –
28 | Cc1ccc(-c2noc(CN(C(=O)COc3cc(C)cc(C)c3C)C(C)C)n2)cc1 | – | inactive: -1.77%
29 | NS(=O)(=O)c1ccc(CCNC(=O)NC23CC4CC(CC(C4)C2)C3)cc1 | inconclusive: 4.61 µM [rising, full curve, poor fit] | –
30 | CCCCNC(=O)CN1CCN(Cc2ccc3cc(OC)ccc3c2)CC1 | – | inactive: -51.4%
31 | CC(C)C[C@H]1CN(CCCC[C@H]2CNC(=O)C(=O)N2CCC2CCCCC2)C(=O)C(=O)N1CCC1CCCCC1 | – | inactive: 23.6%
32 | O=C(Nc1nnc(-c2ccc3c(c2)CCCC3)o1)c1c(F)cccc1F | inconclusive: 29.1 µM [cytotoxic, single point] | –
33 | O=C(Nc1cccc(Br)c1)c1ccc(Cl)c(S(=O)(=O)N2CCOCC2)c1 | active: 4.61 µM | –
34 | O=C(Nc1ccc(Cl)cc1)N1CCN(c2ccc3nnc(-c4ccccc4)n3n2)CC1 | inconclusive: 20.6 µM [cytotoxic, single point] | –
35 | Cn1c(=O)c2c(c3ccccc31)OC(=O)CC2c1cccc(F)c1 (stereo not given) | – | inactive: -3.57%
36 | Cc1sc(NC(=O)CN2CCOCC2)nc1-c1ccc2c(c1)CCN2S(=O)(=O)c1ccccc1 | active: 4.11 µM | –
37 | Cc1ccc(OCC(=O)Nc2ccccc2C(=O)N2CCCCC2)cc1 | – | inactive: 1.16%
38 | COc1ccc(C)cc1NC(=O)COC(=O)c1ccccc1SCC(=O)N1CCCC1 | inconclusive: 23.1 µM [cytotoxic, single point] | –
39 | Cc1ccc(S(=O)(=O)N2[C@@H](Cc3ccccc3)CO[C@H]2CC(=O)c2cccc3ccccc23)cc1 | inconclusive: 23.1 µM [cytotoxic, single point] | –
40 | COc1ccccc1N(CC(=O)NCCSCc1cccc(Cl)c1)S(C)(=O)=O | inactive | –
41 | O=C(CC(=O)c1ccccc1)CC(O)(C=Cc1ccccc1)c1ccccc1 (stereo not given) | – | inactive: -3.93%
42 | Cc1cccc2c1Sc1ccc(Cl)cc1CC2N1CCNCC1 (stereo not given) | inconclusive: 25.9 µM [cytotoxic, partial curve, poor fit] | –
43 | COCCN(C(=O)CSc1nnc(-c2ccncc2)n1C)c1c(N)n(CC(C)C)c(=O)[nH]c1=O | – | inactive: 11.8%
44 | Cc1ccccc1CCNC(=O)c1ccc(Cl)c(S(=O)(=O)N2CC(C)OC(C)C2)c1 (stereo not given) | active: 1.84 µM | –
45 | CC(C)CNC(=O)CSc1ccc(S(=O)(=O)N(C)C2CCCCC2)cn1 | inconclusive: 8.2 µM [cytotoxic, partial curve] | –
46 | COc1cccc(CN(C)S(=O)(=O)c2ccc3c(c2)OCCO3)c1 | inconclusive: 11.6 µM [cytotoxic, partial curve] | –
47 | CC(C)Sc1nc2sc3c(c2c2nnc(SCC(=O)NCc4ccco4)n12)CCCC3 | active: 18.4 µM | –
48 | Cc1cccc(NC(NC(=O)c2cccnc2)C(Cl)(Cl)Cl)c1 (stereo not given) | inconclusive: 16.4 µM [cytotoxic, single point] | –
49 | COc1ccc([N+](=O)[O-])cc1NC(=O)CN(C)S(=O)(=O)c1ccccc1 | inconclusive: 16.4 µM [cytotoxic, partial curve] | –
50 | CCN1CCN(C(=O)N2CCOCC2)CC1 | – | inactive: 8.35%

Row | SMILES | Potency | activity change, negative = cytotoxicity
51 | Nc1[nH]c(C(=O)c2ccccc2)c(-c2ccncc2)c1C(=O)NC1CC1 | – | inactive: -14.2%
52 | C=CCn1c(SCC(=O)NC23CC4CC(CC(C4)C2)C3)nc2cc(C(=O)O)ccc2c1=O | – | inactive: 1.76%
53 | COc1ccc(/C=C/C(=O)c2ccc3ccccc3c2O)cc1CN1CCOCC1 | – | inactive: 8.88%
54 | O=C(Oc1ccccc1)c1cccc2cccc(C(=O)Oc3ccccc3)c12 | inconclusive: 6.51 µM [cytotoxic, partial curve] | –
55 | CC(C)c1ccc(S(=O)(=O)N2CCN(C(=O)c3cccc(S(=O)(=O)N4CCOCC4)c3)CC2)cc1 | inconclusive: 20.6 µM [cytotoxic, single point] | –
56 | COc1ccc(/C=N/N2CCN(c3ccccc3OC)CC2)cc1OC | inconclusive: 2.91 µM [cytotoxic, full curve] | –
57 | Cc1nc(Nc2ccc(Br)cc2Br)c([N+](=O)[O-])c(=O)[nH]1 | inconclusive: 13 µM [rising, partial curve] | –
58 | COc1ccccc1N1CCN(S(=O)(=O)c2ccc3nc(-c4ccccc4)[nH]c3c2)CC1 | – | inconclusive: -5.23%
59 | CCOc1ccc(-c2nc(CSCC(=O)NCc3ccco3)c(C)o2)cc1 | – | inactive: -14.8%
60 | CCOC(=O)c1sc(NC(=O)Nc2ccccc2)cc1C | inconclusive: 29.1 µM [cytotoxic, single point] | –
61 | Cc1c(-c2ccccc2)nc2ccccc2c1C(=O)NCc1cccs1 | active: 11.6 µM | –
62 | CCc1ccc(-n2cccc2/C=C2/C(=N)N3C(=NC2=O)SN=C3S(C)(=O)=O)cc1 | – | inactive: -3.1%
63 | Cc1ccc(C)c(CN2C(=O)NC3(CCCCCC3)C2=O)c1 | inconclusive: 29.1 µM [cytotoxic, single point] | –
64 | COc1ccc(CCNC2=C(Cl)C(=O)N(CCc3ccc(OC)c(OC)c3)C2=O)cc1OC | active: 20.6 µM | –
65 | CC(C)NC(=O)C1CCN(C(=O)c2cc3sccc3n2Cc2ccc(Cl)cc2)CC1 | inconclusive: 3.26 µM [cytotoxic, full curve, poor fit] | –
66 | O=[N+]([O-])c1ccc(S(=O)(=O)NNC(=S)NCCc2ccccc2)cc1 | – | inconclusive: 10.5%
67 | O=C(CCCn1c(=O)oc2ccccc21)N1CCN(c2ccc(F)cc2)CC1 | – | inactive: -22%
68 | S=c1[nH]nc(-c2ccccn2)n1/N=C/c1cccc(Cl)c1 | inconclusive: 29.1 µM [rising, single point] | –
69 | CC1(C)CC(=O)C2=C(C1)c1c(ccc3ccccc13)NC2c1ccc(Br)o1 (stereo not given) | inconclusive: 18.4 µM [cytotoxic, single point] | –
70 | CCOc1ccc(S(=O)(=O)c2cn(Cc3cc(C)ccc3C)c3ccc(OCC)cc3c2=O)cc1 | inconclusive: 18.4 µM [rising, single point] | –
71 | CCC(=O)Oc1ccc2ccccc2c1CNC(=O)c1ccccc1 | active: 14.6 µM | –
72 | O=C(NC(=O)c1ccccc1O)c1ccc(C(F)(F)F)cc1 | – | inactive: -24%
73 | COc1ccc(CN(CCN2CCOCC2)C(=O)c2c(F)cccc2F)cc1OC | inconclusive: 10.3 µM [cytotoxic, partial curve] | –
74 | Cc1ccc2c(CC(=O)NCc3ccco3)coc2c1C | active: 5.8 µM | –
75 | O=C(Cn1c(SCC(=O)N2CCc3ccccc32)nc2ccccc21)NC1CCCC1 | – | inactive: -11.9%
